The other results are listed elsewhere or left out. Many values rest on one well or one pass, so single values are uncertain.
test system: Saccharomyces cerevisiae BY4743; assay: growth (OD600) relative to untreated control; higher = less growth inhibition; conditions: compound concentration: 133 uM; 20 h
Experimental: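 NMCCC compounds (133 uM, no IPBC) tested alone against Saccharomyces cerevisiae BY4743 in YPD, 96-well plates, starting OD600 ~0.1. Growth was read as OD600 at 20 h and expressed as % of the untreated control. Single pass.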

Compound | growth
Cc1ccc(Nc2nc(SCc3ccccc3)nnc2C)cc1 | 92.6%
CCCC(=O)Nc1cc2nn(-c3ccccc3)nc2cc1Cl | 90.6%
CC(C)C[C@@H](C(=O)Nc1cccnc1)N1Cc2ccccc2C1=O | 106%
CC(=O)Nc1cc(NC(C)=O)cc(C(=O)OC(C)C(=O)N2c3ccccc3NC(=O)C2(C)C)c1 (stereo unspecified) | 99%
CCOC(=O)Cn1c2ccc(F)cc2c2nc(C)sc21 | 90.4%
CC(=O)\C1=C(/O)C(=O)N(C1C2=CC=CN=C2)C3=CC=C(OCC(O)=O)C=C3 (stereo unspecified) | 87.3%
CC(C)CN1\C(=N/[S](=O)(=O)C2=CC(=CC=C12)C(=O)N(C)CC3=CC=CC=C3)C | 103%
CCOc1cccc(CC(=O)Nc2nc3ccc(Cl)cc3o2)c1OCC | 90.2%
Cc1ccc2oc(SCC(=O)NC(C)(C)C)nc2n1 | 107%
Cc1ccc(-c2n[nH]c(SCC(=O)NC3(C#N)CCCC3)n2)cc1 | 103%
CCSc1ncc(Cl)c(C(=O)Nc2nc(C)c(C(=O)OCC(C)C)s2)n1 | 103%
CCC(=O)Nc1sc(CC#N)nc1-c1ccc(C)cc1 | 96.5%
CCCN(CCC)C(=O)CN1\N=C/C2=C(C)[N](CC3=CC=CC=C3)C(=C2C1=O)C | 110%
CCCOC(=O)c1cccc(Nc2nc(C(=O)OCC)nc3ccccc23)c1 | 87.2%
CN1C(=O)\C=C(CSC2=NN=C(NC3CC3)S2)/N(C)C1=O | 94.9%
CCOC(=O)c1c(C)n(C)c2ccc(O)c(S(=O)(=O)c3ccc(OC)cc3)c12 | 92.9%

Three structures out of the list, ordered by count of non-hydrogen atoms, high to low.
Compound | growth
CCCN(CCC)C(=O)CN1\N=C/C2=C(C)[N](CC3=CC=CC=C3)C(=C2C1=O)C | 110%
CC(C)CN1\C(=N/[S](=O)(=O)C2=CC(=CC=C12)C(=O)N(C)CC3=CC=CC=C3)C | 103%
CCC(=O)Nc1sc(CC#N)nc1-c1ccc(C)cc1 | 96.5%

Reference: the supplement of paper PMC8007513
